# Reference: PubChem BioAssay AID1347423 (Functional Genomics Laboratory (NCATS/FGL), 2020)
# In all, about 52,000 sequences went through this assay and about 210 (0.4%) were called active.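 The calls were made as follows: active = gene whose silencing raises cell survival under the drug, median off-target-corrected z-score across its silencing RNAs 2 or more; inactive = the rest.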 This is one part of the list.
# Test: Resistance to Poly (ADP-Ribose) Polymerase inhibitor: Gene Identification via Genome-wide siRNA Screen
# Conditions: mouse BRCA2 R2336H ES cells, olaparib, CellTiter-Glo viability; stronger effect = higher value
# In short: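 Genome-wide siRNA screen (3 siRNAs/gene, 20 nM) in mouse ES cells carrying hypomorphic BRCA2 R2336H; olaparib 500 nM added 48 h post-transfection, CellTiter-Glo viability 72 h later. Normalized to plate-median negative control; MAD z-scores, gene median, seed-adjusted.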
row,Sequence,z-score
1,GGAGUUGUCUGUCUUUAAGTT against Inpp5a,inactive: 1.64
2,GCCAUUUGAGUAUGUUGCATT against DXImx50e,inactive: 0.0229
3,GGACAGCGACAAGAUUCCGTT against Sox4,inactive: 0.264
4,GGAACUAGUUUUUAUACUCTT against Igfbp1,inactive: 0.197
5,GGUUAAAAAGGAUUUCAGCTT against E430026E19Rik,inactive: -0.177
6,GCCAAUGAACCGAUCUCUGTT against Ep400,inactive: -1.49
7,GCGAGUUUGUGCUACAAAATT against Htr7,inactive: -0.685
8,GGAGACUAUUUCAUCUACUTT against Tnfsf15,inactive: 0.00701
9,GCUCAUUCACACUUAAUCATT against Dock11,inactive: 0.0746
10,GGACCACCAUUCCAUCAGATT against Sema3d,inactive: 1.84
11,CCAGGUCUAUUUUGCCAUUTT against Dnmbp,inactive: 1.15
12,GCACAUCGCAUUACUAACATT against Pabpc2,inactive: -0.219
13,GGAGAUGCAGGUCUUCUUGTT against Acdc,inactive: -0.0242
14,GGCCGAGGAUGAAAUUGAGTT against Stk25,inactive: 1.41
15,GGUGGUCUACAGAAAAUUCTT against Ncf1,inactive: 1.4
16,GGAAUAUUUUUUCUGGGAGTT against Ugt8,inactive: 0.863
17,GGAAUACAUCUACAAAGAGTT against AA959601,inactive: 0.676
18,GGAGUUUUGUGAACUAUGATT against Slc36a3,inactive: 2.17
19,GCAACAUUGCAUCUAUUUATT against Dbx1,inactive: 0.0186
20,GGGUGUGUUGUAUCUCCCUTT against Cdh26,inactive: 1.89
21,GGAUCCAAUCAGGAGAAAGTT against Lass4,inactive: -0.667
22,GGCCAUGGUUCUAUAGGACTT against D430004I08Rik,inactive: 1.4
23,CCGACAAACGCAAGGUGAUTT against 2900027G03Rik,inactive: -1.4
24,GGAAUAUGUGCAGAAGCUGTT against Fgd2,inactive: -0.21
25,GGCUGACAAGGCCAAAUACTT against 1700012H17Rik,inactive: -1.13
26,CCUUAAGGCUGAUUGGGACTT against 1700080E11Rik,inactive: 0.0648
27,GGCACAGAAAAUCUCUGAUTT against Psmd3,inactive: -3.24
28,GGUAUUGACCAAGAAGAAATT against Taf12,inactive: -1.94
29,GGUAUUAUCUAACUCUAGCTT against Mftc,inactive: 0.669

# Another view of some results above:
row	Sequence	z-score
7	GCGAGUUUGUGCUACAAAATT against Htr7	inactive: -0.685
8	GGAGACUAUUUCAUCUACUTT against Tnfsf15	inactive: 0.00701
